Laboratory results from article PMC12080386.

Target: T1, SIRT4-Flag (human) (UniProt Q9Y6E7)
T1 sequence: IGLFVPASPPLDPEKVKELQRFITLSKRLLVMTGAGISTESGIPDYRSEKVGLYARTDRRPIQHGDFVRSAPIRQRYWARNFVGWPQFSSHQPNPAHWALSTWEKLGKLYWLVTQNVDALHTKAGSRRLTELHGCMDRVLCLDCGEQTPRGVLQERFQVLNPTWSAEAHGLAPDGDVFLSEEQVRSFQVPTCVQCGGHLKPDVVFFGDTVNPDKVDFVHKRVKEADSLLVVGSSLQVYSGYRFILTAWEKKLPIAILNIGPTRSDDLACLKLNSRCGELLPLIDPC
Experiment: affinity purification with mass spectrometry; anti-Flag M2 affinity gel on lysates of 293FT cells transiently transfected with SIRT4-Flag, compared with empty vector; bands of the SDS-PAGE gel analysed by mass spectrometry

binding: binds
B1: 3-methylcrotonyl-CoA carboxylase 2 (MCCC2), endogenous in 293FT cells (enzyme, UniProt Q9HCC0 23-563)
chain: YHGDSVASLGTQPDLGSALYQENYKQMKALVNQLHERVEHIKLGGGEKARALHISRGKLLPRERIDNLIDPGSPFLELSQFAGYQLYDNEEVPGGGIITGIGRVSGVECMIIANDATVKGGAYYPVTVKKQLRAQEIAMQNRLPCIYLVDSGGAYLPRQADVFPDRDHFGRTFYNQAIMSSKNIAQIAVVMGSCTAGGAYVPAMADENIIVRKQGTIFLAGPPLVKAATGEEVSAEDLGGADLHCRKSGVSDHWALDDHHALHLTRKVVRNLNYQKKLDVTIEPSEEPLFPADELYGIVGANLKRSFDVREVIARIVDGSRFTEFKAFYGDTLVTGFARIFGYPVGIVGNNGVLFSESAKKGTHFVQLCCQRNIPLLFLQNITGFMVGREYEAEGIAKDGAKMVAAVACAQVPKITLIIGGSYGAGNYGMCGRAYSPRFLYIWPNARISVMGGEQAANVLATITKDQRAREGKQFSSADEAALKEPIIKKFEEEGNPYYSSARVWDDGIIDPADTRLVLGLSFSAALNAPIEKTDFGIFRM

No constants are given. Whether binding was seen depends on the method and setting. Binding seen in cells or lysates may run through a third protein. Here binding means that the protein was enriched with, or labelled near, the bait; the list need not be complete. Where a sequence is shown, tags or fusion partners need not be part of it.
